Laboratory results published in PubChem BioAssay AID192 (DTP/NCI, 2004).
The list does not hold the whole screen: it gathers tests that were run many times, whatever their T/C, doses with no T/C, and many T/C values between a quarter and a half above the control. Other doses and runs of a compound stand elsewhere. T/C gives the treated animals as a percentage of the vehicle group. Some entries give survivors of the animals treated and no T/C: the source files T/C as zero there, which appears to mark a toxic dose or a test without result, not a measured value. Some doses without a T/C left all or most animals alive at the check, yet need not have been tolerated: survival well below the control is almost never listed, so the zero probably covers shortened survival too. Survivors were counted at the toxicity check, usually on the fifth day, unless a day is given; later deaths do not show. Schedule codes are those of the source, taken here to give the interval after Q, in days (D) or hours (H), and the number of doses after X. Signs of the kind (2×) say how often a value occurs here. Some doses were run more than once; their values stand side by side, smallest first. For survival time, the PubChem record calls one and a half times the control and up active, and a quarter to a half above the control has no call in these data; cut-offs in other NCI protocols can differ.

Test system: BDF1 mice, B16 melanoma ip, median survival T/C
Test: NCI In Vivo Anticancer Drug Screen. Data for tumor model B16 Melanoma (intraperitoneal) in B6D2F1 (BDF1) mice
Conditions: T/C endpoint: median survival time, higher T/C = longer survival
Outline: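 Vehicle-treated animals serve as the reference (C); treated animals (T) are scored for survival or tumor size after tumor transplantation.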

[1] = dose: 20.0 mg/kg/injection, schedule: Q01DX009 (ip), vehicle: saline with Tween-80
[2] = dose: 100.0 mg/kg/injection, schedule: Q01DX009 (ip), vehicle: saline
[3] = dose: 100.0 mg/kg/injection, schedule: Q01DX009 (ip), vehicle: saline with Tween-80
[4] = dose: 400.0 mg/kg/injection, schedule: Q01DX009 (ip), vehicle: Klucel (hydroxypropylcellulose) (HPC)
[5] = dose: 200.0 mg/kg/injection, schedule: Q01DX009 (ip), vehicle: saline
[6] = dose: 50.0 mg/kg/injection, schedule: Q01DX009 (ip), vehicle: saline
[7] = dose: 200.0 mg/kg/injection, schedule: Q01DX009 (ip), vehicle: saline with Tween-80
[8] = dose: 400.0 mg/kg/injection, schedule: Q01DX009 (ip), vehicle: saline with Tween-80
[9] = dose: 100.0 mg/kg/injection, schedule: Q01DX009 (ip), vehicle: Klucel (hydroxypropylcellulose) (HPC)
[10] = dose: 400.0 mg/kg/injection, schedule: Q01DX009 (ip), vehicle: saline

COc1cc2ccc3c(c2cc1OC)N(C)C(OC)c1cc2c(cc1-3)OCO2 (stereo not drawn) was tested, and the T/C (dose: 5.0 mg/kg/injection, schedule: Q01DX009 (ip), vehicle: saline with Tween-80) was 125 % of control, the T/C [1] was 138 % of control and the survivor count (dose: 40.0 mg/kg/injection, schedule: Q01DX009 (ip), vehicle: saline with Tween-80) was 10 of 10. For the same compound, the survivor count (dose: 80.0 mg/kg/injection, schedule: Q01DX009 (ip), vehicle: saline with Tween-80) was 10 of 10.

Nc1ncnc2c1ncn2C1OCC(O)C1O (stereo not drawn) was tested, and the survivor count [2] was 10 of 10.

COc1ccc(S(=O)(=O)N=N/C=C2\C=CC=CN2O)cc1OC was tested, and the T/C [3] was 137 % of control.

In the case of CN(C(=N)N)c1ccc(C(=O)Oc2ccc([N+](=O)[O-])cc2)cc1, the survivor count [4] is reported as 1 of 10.

In the case of Cc1c(N)nc(C(CC(N)=O)NCC(N)C(N)=O)nc1C(=O)NC(C(=O)NC(C)C(O)C(C)C(=O)NC(C(=O)NCCc1nc(-c2nc(C(=O)NCCCNCCCc3ccccn3)cs2)cs1)C(C)O)C(OC1OC(CO)C(O)C(O)C1OC1OC(CO)C(O)C(OC(N)=O)C1O)c1cnc[nH]1 (stereo not drawn), the survivor count (dose: 48.0 mg/kg/injection, schedule: Q01DX009 (ip), vehicle: water) is reported as 10 of 10.

In the case of C#CCC1(OC(N)=O)CCCCC1, the survivor count [5] is reported as 9 of 10 and the survivor count (dose: 400.0 mg/kg/injection, schedule: Q04DX003 (ip), vehicle: Klucel (hydroxypropylcellulose) (HPC)) is reported as 10 of 10.

In the case of CCNCCCCCCNCC, the survivor count [6] is reported as 10 of 10.

With O=C(Nc1ccc(F)cc1)Nc1cccc2ccccc12 the survivor count [4] was 6 of 6.

CCCCc1ccc2nc(NC(=O)OC)[nH]c2c1 was tested, and the T/C (dose: 50.0 mg/kg/injection, schedule: Q01DX009 (ip), vehicle: saline with Tween-80) was 129 % of control, the survivor count [3] was 10 of 10 and the survivor count [7] was 8 of 10.

With CCCCCCCCCCCCCCCCCC(=O)NNCCO the survivor count [3] was 9 of 10 and the survivor count [7] was 1 of 10.

Cc1ccc2nc(-c3ccc(N=Cc4ccccc4O)cc3)sc2c1 was tested, and the survivor count (dose: 12.5 mg/kg/injection, schedule: Q01DX009 (ip), vehicle: olive oil, sesame oil, peanut oil) was 9 of 10 and 10 of 10, the survivor count (dose: 25.0 mg/kg/injection, schedule: Q01DX009 (ip), vehicle: olive oil, sesame oil, peanut oil) was 10 of 10 and the survivor count (dose: 50.0 mg/kg/injection, schedule: Q01DX009 (ip), vehicle: olive oil, sesame oil, peanut oil) was 9 of 10. For the same compound, the survivor count (dose: 100.0 mg/kg/injection, schedule: Q01DX009 (ip), vehicle: olive oil, sesame oil, peanut oil) was 10 of 10 (2×), the survivor count (dose: 200.0 mg/kg/injection, schedule: Q01DX009 (ip), vehicle: olive oil, sesame oil, peanut oil) was 10 of 10 (2×) and the survivor count (dose: 400.0 mg/kg/injection, schedule: Q01DX009 (ip), vehicle: olive oil, sesame oil, peanut oil) was 9 of 10 and 10 of 10.

In the case of CN=C(N)N/N=C(\C)c1ccc2c(c1)Cc1ccccc1-2, the survivor count [7] is reported as 7 of 10 and the survivor count [8] is reported as 1 of 10.

O=C(Nc1ccccc1)Nc1nccs1 was tested, and the survivor count [4] was 6 of 10.

With CCCNCCNc1ccc(NCCNCCC)c2c1C(=O)c1ccccc1C2=O the survivor count (dose: 64.0 mg/kg/injection, schedule: Q01DX009 (ip), vehicle: acid diluted with saline) was 0 of 10, the survivor count (dose: 128.0 mg/kg/injection, schedule: Q01DX009 (ip), vehicle: acid diluted with saline) was 0 of 10 and the survivor count (dose: 256.0 mg/kg/injection, schedule: Q01DX009 (ip), vehicle: acid diluted with saline) was 0 of 10.

CC1(C)N=C(N)N=C(N)N1c1ccc(OCCNS(=O)(=O)c2cccc(S(=O)(=O)F)c2)c(Cl)c1 was tested, and the T/C [3] was 126 % of control, the survivor count [7] was 9 of 10 and the survivor count [8] was 0 of 10.

For O=C1C=C[C@H](O)[C@@]2(CO)O[C@@H]12, the survivor count [1] was 1 of 10 and the survivor count (dose: 30.0 mg/kg/injection, schedule: Q01DX009 (ip), vehicle: saline with Tween-80) was 0 of 10.

For Nc1ccc(S(=O)(=O)CCCl)cc1, the survivor count (dose: 50.0 mg/kg/injection, schedule: Q04DX003 (ip), vehicle: Klucel (hydroxypropylcellulose) (HPC)) was 10 of 10 and the survivor count (dose: 100.0 mg/kg/injection, schedule: Q04DX003 (ip), vehicle: Klucel (hydroxypropylcellulose) (HPC)) was 10 of 10.

With Cc1ccc(N(CCCl)CCCl)cc1NC(=O)c1ccccc1 the T/C [2] was 145 % of control and the T/C [5] was 145 % of control.

With O=C1CC(NC(=O)OCc2ccccc2)C(=O)O1 (stereo not drawn) the survivor count (dose: 400.0 mg/kg/injection, schedule: Q01DX009 (ip), vehicle: alcohol) was 10 of 10.

With O=C1C(Cl)=C(Cl)C(=O)c2ccccc21 the survivor count [1] was 10 of 10.

In the case of Nc1nc(O)c(CC(=O)O)s1, the survivor count (dose: 3.12 mg/kg/injection, schedule: Q01DX009 (ip), vehicle: Klucel (hydroxypropylcellulose) (HPC)) is reported as 10 of 10, the survivor count (dose: 6.25 mg/kg/injection, schedule: Q01DX009 (ip), vehicle: Klucel (hydroxypropylcellulose) (HPC)) is reported as 10 of 10 and the survivor count (dose: 25.0 mg/kg/injection, schedule: Q01DX009 (ip), vehicle: Klucel (hydroxypropylcellulose) (HPC)) is reported as 10 of 10. The survivor count [9] was 10 of 10.

In the case of CN(C)CCN1C(=O)c2cccc3cc(N)cc(c23)C1=O, the survivor count (dose: 32.0 mg/kg/injection, schedule: Q01DX009 (ip), vehicle: acid diluted with saline) is reported as 9 of 10.

In the case of O=[N+]([O-])c1ccc(Sc2ccncn2)c([N+](=O)[O-])c1, the survivor count [3] is reported as 6 of 10 and the survivor count [7] is reported as 0 of 10 (2×).

For O=c1n[n+]([O-])ccn1C1OC(CO)C(O)C1O (stereo not drawn), the T/C [5] was 131 % of control, the T/C [10] was 138 % of control and the survivor count [10] was 10 of 10.

For CC(=O)CC(=O)Nc1ccc(C(=O)O)c(O)c1, the survivor count [4] was 10 of 10.

For O=[N+]([O-])O.[Cu+2].[NH-]CC[NH-].[NH-]CC[NH-], the survivor count (dose: 25.0 mg/kg/injection, schedule: Q01DX009 (ip), vehicle: saline) was 6 of 10 and the survivor count [6] was 0 of 10.

O=C(CC(=O)CC(O)(C(F)(F)F)C(F)(F)F)CC(O)(C(F)(F)F)C(F)(F)F was tested, and the survivor count (dose: 250.0 micrograms/kg/injection, schedule: Q01DX009 (ip), vehicle: saline with Tween-80) was 9 of 10 and the survivor count (dose: 500.0 micrograms/kg/injection, schedule: Q01DX009 (ip), vehicle: saline with Tween-80) was 10 of 10.

CCCCCCCCCc1ccc(OC(=O)CCC)cc1 was tested, and the survivor count (dose: 50.0 mg/kg/injection, schedule: Q01DX009 (ip), vehicle: Klucel (hydroxypropylcellulose) (HPC)) was 10 of 10, the survivor count [9] was 10 of 10 and the survivor count (dose: 200.0 mg/kg/injection, schedule: Q01DX009 (ip), vehicle: Klucel (hydroxypropylcellulose) (HPC)) was 10 of 10.
